Source: the supplement of paper PMC10849652
Some of the results follow.

By UniProt entry, the sequences of proteins in these tests, tags left out. Where a name states a change or a piece, a line headed by the entry shows the natural chain unless it says otherwise.
UniProt Q9UHX1: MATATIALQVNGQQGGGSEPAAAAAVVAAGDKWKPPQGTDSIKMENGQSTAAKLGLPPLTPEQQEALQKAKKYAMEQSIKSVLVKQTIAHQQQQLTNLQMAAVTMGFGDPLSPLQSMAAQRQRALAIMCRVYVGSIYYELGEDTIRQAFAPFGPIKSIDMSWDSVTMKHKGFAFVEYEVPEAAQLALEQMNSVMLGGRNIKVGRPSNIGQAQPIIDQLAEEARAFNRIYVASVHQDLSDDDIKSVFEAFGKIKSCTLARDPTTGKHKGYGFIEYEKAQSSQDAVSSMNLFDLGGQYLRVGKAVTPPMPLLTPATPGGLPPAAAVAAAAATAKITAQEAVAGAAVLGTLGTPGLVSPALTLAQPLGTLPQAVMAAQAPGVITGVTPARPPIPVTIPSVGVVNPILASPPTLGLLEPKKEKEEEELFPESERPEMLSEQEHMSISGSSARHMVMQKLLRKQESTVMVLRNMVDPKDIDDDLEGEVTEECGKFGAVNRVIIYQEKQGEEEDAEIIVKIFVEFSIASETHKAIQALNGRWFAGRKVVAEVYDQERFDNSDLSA
UniProt P20618: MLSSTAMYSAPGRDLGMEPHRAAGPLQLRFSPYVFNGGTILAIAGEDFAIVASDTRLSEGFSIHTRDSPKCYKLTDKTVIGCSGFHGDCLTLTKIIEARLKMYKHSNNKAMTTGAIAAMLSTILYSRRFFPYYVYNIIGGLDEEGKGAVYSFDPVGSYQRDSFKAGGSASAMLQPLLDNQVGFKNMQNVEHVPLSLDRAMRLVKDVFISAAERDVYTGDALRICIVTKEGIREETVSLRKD
UniProt P28072: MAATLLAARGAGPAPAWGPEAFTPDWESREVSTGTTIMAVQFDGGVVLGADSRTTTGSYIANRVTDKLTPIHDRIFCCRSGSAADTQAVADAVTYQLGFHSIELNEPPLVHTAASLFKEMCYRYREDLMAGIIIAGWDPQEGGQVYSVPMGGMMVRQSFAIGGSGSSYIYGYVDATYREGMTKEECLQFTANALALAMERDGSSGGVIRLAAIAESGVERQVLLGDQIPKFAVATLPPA
UniProt P08575: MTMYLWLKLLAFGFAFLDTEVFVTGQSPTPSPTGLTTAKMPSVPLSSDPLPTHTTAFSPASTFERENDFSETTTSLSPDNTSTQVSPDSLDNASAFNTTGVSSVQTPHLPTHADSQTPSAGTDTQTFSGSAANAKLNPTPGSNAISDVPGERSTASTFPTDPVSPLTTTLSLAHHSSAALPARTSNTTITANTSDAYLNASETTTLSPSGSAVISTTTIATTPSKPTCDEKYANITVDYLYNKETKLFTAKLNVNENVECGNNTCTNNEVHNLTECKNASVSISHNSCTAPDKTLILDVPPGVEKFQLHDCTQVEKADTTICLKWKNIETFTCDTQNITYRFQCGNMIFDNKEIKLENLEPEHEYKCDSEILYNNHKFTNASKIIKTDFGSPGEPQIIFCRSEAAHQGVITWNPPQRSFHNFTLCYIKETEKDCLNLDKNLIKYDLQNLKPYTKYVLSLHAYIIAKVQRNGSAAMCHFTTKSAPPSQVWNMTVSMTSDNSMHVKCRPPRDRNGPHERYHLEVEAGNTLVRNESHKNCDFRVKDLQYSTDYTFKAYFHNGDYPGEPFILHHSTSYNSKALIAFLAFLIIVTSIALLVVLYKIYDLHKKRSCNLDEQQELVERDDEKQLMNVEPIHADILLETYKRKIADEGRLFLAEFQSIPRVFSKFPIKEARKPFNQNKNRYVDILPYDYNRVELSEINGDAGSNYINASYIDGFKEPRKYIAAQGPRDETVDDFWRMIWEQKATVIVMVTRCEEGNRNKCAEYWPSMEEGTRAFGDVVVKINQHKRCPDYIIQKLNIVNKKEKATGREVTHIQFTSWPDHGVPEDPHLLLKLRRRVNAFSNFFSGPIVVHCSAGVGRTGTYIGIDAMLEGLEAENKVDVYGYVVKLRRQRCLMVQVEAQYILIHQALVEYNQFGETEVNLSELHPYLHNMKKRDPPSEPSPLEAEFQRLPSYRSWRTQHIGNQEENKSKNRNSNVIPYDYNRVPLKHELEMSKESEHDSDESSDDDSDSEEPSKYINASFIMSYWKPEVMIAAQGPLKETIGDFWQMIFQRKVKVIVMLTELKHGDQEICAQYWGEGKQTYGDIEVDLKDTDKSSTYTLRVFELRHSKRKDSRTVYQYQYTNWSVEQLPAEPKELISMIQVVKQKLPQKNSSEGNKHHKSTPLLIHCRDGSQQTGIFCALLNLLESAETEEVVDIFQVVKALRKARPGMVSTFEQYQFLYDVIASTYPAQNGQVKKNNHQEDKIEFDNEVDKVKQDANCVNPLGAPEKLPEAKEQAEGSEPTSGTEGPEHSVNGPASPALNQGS
UniProt P18433: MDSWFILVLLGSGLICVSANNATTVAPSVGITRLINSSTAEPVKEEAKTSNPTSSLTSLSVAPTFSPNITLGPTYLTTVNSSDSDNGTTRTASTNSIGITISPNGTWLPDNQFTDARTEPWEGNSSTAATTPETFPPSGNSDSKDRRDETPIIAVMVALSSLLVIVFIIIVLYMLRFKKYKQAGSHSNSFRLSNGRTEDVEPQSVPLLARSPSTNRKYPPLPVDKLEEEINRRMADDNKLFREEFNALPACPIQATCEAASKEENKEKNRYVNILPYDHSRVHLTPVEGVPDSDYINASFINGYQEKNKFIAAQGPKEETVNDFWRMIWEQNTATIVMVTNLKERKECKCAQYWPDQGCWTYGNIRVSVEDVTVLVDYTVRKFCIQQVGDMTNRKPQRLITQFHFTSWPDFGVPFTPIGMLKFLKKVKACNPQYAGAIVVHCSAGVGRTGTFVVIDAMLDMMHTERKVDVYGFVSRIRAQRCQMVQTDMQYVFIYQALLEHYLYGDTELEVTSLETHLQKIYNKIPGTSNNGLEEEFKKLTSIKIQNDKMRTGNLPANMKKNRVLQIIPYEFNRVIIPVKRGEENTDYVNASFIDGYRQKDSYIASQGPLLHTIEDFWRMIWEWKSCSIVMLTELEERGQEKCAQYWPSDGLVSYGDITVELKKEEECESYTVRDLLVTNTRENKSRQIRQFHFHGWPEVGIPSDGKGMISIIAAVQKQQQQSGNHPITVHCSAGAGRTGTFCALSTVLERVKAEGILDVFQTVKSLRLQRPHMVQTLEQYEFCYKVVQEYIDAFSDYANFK
UniProt Q9BZE2: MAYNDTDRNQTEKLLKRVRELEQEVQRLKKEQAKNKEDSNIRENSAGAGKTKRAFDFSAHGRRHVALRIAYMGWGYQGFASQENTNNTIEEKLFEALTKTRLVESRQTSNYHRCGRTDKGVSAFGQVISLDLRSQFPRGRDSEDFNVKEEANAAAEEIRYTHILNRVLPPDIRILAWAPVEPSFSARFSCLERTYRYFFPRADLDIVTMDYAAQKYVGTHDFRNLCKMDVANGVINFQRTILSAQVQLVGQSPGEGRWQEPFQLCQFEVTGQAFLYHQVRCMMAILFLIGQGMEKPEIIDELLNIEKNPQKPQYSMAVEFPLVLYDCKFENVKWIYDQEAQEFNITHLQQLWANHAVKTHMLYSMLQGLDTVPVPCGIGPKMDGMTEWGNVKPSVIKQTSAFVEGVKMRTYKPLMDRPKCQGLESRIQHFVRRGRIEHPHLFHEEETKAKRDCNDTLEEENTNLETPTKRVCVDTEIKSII
UniProt Q96PZ0: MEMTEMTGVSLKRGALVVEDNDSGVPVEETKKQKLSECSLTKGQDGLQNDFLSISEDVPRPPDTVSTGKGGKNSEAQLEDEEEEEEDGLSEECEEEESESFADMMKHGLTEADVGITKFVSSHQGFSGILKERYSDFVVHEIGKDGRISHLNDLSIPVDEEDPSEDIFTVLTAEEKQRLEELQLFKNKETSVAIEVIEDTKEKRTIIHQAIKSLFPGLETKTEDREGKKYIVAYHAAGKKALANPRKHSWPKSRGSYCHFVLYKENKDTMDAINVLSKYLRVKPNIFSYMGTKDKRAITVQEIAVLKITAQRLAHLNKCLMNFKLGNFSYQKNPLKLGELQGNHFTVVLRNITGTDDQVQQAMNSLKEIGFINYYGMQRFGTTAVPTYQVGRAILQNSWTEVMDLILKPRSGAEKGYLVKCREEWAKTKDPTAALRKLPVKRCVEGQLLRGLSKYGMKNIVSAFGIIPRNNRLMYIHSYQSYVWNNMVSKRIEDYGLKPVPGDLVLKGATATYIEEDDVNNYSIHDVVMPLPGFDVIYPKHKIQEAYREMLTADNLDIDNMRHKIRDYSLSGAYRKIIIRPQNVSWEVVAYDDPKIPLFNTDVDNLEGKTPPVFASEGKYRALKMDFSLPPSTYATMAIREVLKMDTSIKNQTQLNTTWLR
UniProt P20962: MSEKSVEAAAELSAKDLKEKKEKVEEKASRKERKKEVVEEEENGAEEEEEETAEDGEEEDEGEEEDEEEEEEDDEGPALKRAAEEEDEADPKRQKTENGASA
UniProt Q96QR8: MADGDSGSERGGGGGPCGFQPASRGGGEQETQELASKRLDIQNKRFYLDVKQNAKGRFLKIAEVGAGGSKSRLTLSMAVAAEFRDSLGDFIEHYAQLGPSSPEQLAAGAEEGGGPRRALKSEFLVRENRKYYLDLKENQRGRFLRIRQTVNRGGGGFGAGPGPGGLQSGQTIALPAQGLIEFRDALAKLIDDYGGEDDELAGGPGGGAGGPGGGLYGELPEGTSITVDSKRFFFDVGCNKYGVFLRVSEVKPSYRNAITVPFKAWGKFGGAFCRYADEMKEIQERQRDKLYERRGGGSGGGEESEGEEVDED
UniProt Q5JS54: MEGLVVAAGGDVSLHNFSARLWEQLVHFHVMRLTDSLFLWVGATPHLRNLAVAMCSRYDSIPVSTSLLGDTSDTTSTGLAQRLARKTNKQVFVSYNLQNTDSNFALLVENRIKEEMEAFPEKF
UniProt P25789: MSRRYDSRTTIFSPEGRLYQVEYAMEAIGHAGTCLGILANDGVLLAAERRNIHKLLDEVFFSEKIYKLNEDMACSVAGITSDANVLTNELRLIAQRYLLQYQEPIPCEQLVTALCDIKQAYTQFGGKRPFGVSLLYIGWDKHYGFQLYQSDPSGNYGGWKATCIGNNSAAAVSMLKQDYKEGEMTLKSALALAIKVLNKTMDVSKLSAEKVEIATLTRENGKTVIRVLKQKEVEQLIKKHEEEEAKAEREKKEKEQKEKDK
UniProt O95997: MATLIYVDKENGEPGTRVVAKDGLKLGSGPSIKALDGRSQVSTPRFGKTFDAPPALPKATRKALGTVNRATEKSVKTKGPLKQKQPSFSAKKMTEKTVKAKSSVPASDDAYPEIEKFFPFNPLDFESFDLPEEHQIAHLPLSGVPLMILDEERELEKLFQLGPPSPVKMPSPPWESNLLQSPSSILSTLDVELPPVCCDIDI
UniProt P51665: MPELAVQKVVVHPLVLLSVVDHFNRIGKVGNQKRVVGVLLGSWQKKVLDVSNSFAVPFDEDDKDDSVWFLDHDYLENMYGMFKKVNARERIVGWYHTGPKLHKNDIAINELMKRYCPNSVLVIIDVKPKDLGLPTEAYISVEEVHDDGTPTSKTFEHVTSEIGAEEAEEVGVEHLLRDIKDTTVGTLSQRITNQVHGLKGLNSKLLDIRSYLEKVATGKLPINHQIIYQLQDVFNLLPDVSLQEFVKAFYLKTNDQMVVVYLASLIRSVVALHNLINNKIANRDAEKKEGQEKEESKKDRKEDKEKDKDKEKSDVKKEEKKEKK
UniProt P35236: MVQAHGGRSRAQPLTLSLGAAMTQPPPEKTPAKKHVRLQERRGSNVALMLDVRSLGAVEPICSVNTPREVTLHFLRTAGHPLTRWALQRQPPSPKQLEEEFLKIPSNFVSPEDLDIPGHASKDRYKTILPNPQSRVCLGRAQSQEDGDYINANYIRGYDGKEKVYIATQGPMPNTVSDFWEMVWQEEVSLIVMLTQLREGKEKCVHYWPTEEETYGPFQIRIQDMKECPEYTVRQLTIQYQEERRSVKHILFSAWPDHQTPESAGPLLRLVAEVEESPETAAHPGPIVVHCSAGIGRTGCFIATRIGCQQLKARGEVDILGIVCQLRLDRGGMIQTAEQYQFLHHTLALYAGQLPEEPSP
UniProt Q6GMV3: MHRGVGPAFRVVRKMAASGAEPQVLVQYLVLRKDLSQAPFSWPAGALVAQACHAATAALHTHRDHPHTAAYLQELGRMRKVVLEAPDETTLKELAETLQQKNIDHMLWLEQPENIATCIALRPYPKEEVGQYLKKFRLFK
UniProt Q15008: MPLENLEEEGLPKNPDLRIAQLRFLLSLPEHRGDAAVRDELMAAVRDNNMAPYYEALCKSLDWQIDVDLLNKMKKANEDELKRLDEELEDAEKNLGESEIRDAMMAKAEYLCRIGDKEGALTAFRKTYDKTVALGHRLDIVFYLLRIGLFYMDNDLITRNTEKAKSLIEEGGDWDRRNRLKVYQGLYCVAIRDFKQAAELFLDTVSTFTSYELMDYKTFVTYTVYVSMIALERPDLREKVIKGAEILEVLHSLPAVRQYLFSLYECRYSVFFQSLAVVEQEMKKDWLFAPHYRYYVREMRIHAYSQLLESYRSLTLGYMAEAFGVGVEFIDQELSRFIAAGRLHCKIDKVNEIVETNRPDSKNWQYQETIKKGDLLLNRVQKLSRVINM

compound: O=C(O)c1ccc2c(c1)nc(Nc1cccc(Cl)c1)c1ccncc12 [silmitasertib]; assay: log2 fold change, soluble protein after heating vs DMSO (PISA); higher = thermal stabilisation; K562 lysate, 10 uM; active = over 0.2 and 3.5 SD of the protein, either way, in both replicates (recomputed)
Method in brief: (§1)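 The values are log-two fold changes in thermal stability compared with solvent controls and come from duplicates. They were obtained by TMTpro 16plex LC-MS/MS, with channel sums equalised, on the supernatant after 21,000xg for 90 min. That supernatant came from crude K562 extract at 1 mg/mL protein treated with 10 μM compound for 30 min, heated for 3 min across 48°C-58°C, pooled and brought to 0.5% NP-40 at 4°C.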

log2 fold change, inactive:
PUF60 isoform 2 (UniProt Q9UHX1) 0.075
PSMB1 (UniProt P20618) -0.019
PSMB6 (UniProt P28072) -0.008
PRPS1 (UniProt B1ALA9) 0.013
PTPRC (UniProt P08575) 0.01
PTPRA (UniProt P18433) 0.024
PUS3 (UniProt Q9BZE2) 0.11
PUS7 isoform 2 (UniProt Q96PZ0) -0.019
PTMS (UniProt P20962) -0.049
PURB (UniProt Q96QR8) -0.006

compound: O=C1NC(=O)C(c2cnc3ccccn23)=C1c1cn2c3c(cc(F)cc13)CN(C(=O)N1CCCCC1)CC2; assay: as above
Method in brief: as §1

log2 fold change, inactive:
PSMG4 isoform 2 (UniProt Q5JS54) 0.033
PSMA4 (UniProt P25789) -0.008
PTTG1 (UniProt O95997) -0.004
PSMD7 (UniProt P51665) 0.006
PUSL1 (UniProt Q8N0Z8) 0.063
PTGS1 isoform 6 (UniProt P23219) 0.003
PRR14L (UniProt Q5THK1) -0.058
PSME3 isoform 2 (UniProt P61289) -0.007
PSMD13 (UniProt Q9UNM6) -0.024
PTK7 isoform 6 (UniProt Q13308) -0.014
PTPN7 isoform 3 (UniProt P35236) -0.044
PRRC2B (UniProt Q5JSZ5) 0.008
PTRHD1 (UniProt Q6GMV3) 0.091
PSMB9 (UniProt P28065) 0.081
PTCD3 (UniProt Q96EY7) 0.094
PSMD6 isoform 4 (UniProt Q15008) -0.02
PSMD11 (UniProt O00231) 0.032
PSMA3 (UniProt P25788) -0.028
PSIP1 (UniProt O75475) -0.024
PSMD5 (UniProt Q16401) -0.005
PTP4A1 (UniProt Q93096) 0.014
PSAT1 (UniProt Q9Y617) -0.016
PUF60 isoform 2 (UniProt Q9UHX1) 0.026
PSMB1 (UniProt P20618) 0.02
PSMB6 (UniProt P28072) -0.025
PRPS1 (UniProt B1ALA9) -0.014
PTPRC (UniProt P08575) -0.006
PTPRA (UniProt P18433) -0.072
PUS3 (UniProt Q9BZE2) 0.017
PUS7 isoform 2 (UniProt Q96PZ0) 0.011
PTMS (UniProt P20962) -0.027
PURB (UniProt Q96QR8) 0.007

compound: c1cn2cc(-c3ccc4cn[nH]c4c3)nc(Nc3ccc(N4CCOCC4)cc3)c2n1 [entospletinib]; assay: as above
Method in brief: as §1

log2 fold change, inactive:
PSMG4 isoform 2 (UniProt Q5JS54) -0.018
PSMA4 (UniProt P25789) 0.012
PTTG1 (UniProt O95997) 0.006
PSMD7 (UniProt P51665) -0.008
PUSL1 (UniProt Q8N0Z8) 0.065
PTGS1 isoform 6 (UniProt P23219) -0.017
PRR14L (UniProt Q5THK1) 0.004
PSME3 isoform 2 (UniProt P61289) -0.017
PSMD13 (UniProt Q9UNM6) 0
PTK7 isoform 6 (UniProt Q13308) -0.016
PTPN7 isoform 3 (UniProt P35236) -0.008
PRRC2B (UniProt Q5JSZ5) 0.002
PTRHD1 (UniProt Q6GMV3) -0.115
PSMB9 (UniProt P28065) 0
PTCD3 (UniProt Q96EY7) 0.029
PSMD6 isoform 4 (UniProt Q15008) 0.025
PSMD11 (UniProt O00231) 0.012
PSMA3 (UniProt P25788) 0.023
PSIP1 (UniProt O75475) -0.004
PSMD5 (UniProt Q16401) -0.009
PTP4A1 (UniProt Q93096) -0.009
PSAT1 (UniProt Q9Y617) 0
PUF60 isoform 2 (UniProt Q9UHX1) 0.027
PSMB1 (UniProt P20618) -0.036
PSMB6 (UniProt P28072) -0.001
PRPS1 (UniProt B1ALA9) -0.003
PTPRC (UniProt P08575) -0.035
PTPRA (UniProt P18433) 0.026
PUS3 (UniProt Q9BZE2) -0.041
PUS7 isoform 2 (UniProt Q96PZ0) -0.007
PTMS (UniProt P20962) -0.031
PURB (UniProt Q96QR8) -0.04
